Laboratory results published in publication doi:10.1101/2022.11.07.515429 (bioRxiv, 2022).
No constants are given. Whether binding was seen depends on the method and setting. For some of these results: Binding seen in cells or lysates may run through a third protein. Some results given as binding are weak or reduced against the parent protein; the word gives no strength. For some of these results: Sequences can lack the tags named with a protein.

Protein sequences, listed by entry. Tags and fused reporters are not part of them. Lines headed by an entry give the natural chain unless they say otherwise; changes in a name come on top.
UniProt O75533, whole entry, looked up, stated change not applied: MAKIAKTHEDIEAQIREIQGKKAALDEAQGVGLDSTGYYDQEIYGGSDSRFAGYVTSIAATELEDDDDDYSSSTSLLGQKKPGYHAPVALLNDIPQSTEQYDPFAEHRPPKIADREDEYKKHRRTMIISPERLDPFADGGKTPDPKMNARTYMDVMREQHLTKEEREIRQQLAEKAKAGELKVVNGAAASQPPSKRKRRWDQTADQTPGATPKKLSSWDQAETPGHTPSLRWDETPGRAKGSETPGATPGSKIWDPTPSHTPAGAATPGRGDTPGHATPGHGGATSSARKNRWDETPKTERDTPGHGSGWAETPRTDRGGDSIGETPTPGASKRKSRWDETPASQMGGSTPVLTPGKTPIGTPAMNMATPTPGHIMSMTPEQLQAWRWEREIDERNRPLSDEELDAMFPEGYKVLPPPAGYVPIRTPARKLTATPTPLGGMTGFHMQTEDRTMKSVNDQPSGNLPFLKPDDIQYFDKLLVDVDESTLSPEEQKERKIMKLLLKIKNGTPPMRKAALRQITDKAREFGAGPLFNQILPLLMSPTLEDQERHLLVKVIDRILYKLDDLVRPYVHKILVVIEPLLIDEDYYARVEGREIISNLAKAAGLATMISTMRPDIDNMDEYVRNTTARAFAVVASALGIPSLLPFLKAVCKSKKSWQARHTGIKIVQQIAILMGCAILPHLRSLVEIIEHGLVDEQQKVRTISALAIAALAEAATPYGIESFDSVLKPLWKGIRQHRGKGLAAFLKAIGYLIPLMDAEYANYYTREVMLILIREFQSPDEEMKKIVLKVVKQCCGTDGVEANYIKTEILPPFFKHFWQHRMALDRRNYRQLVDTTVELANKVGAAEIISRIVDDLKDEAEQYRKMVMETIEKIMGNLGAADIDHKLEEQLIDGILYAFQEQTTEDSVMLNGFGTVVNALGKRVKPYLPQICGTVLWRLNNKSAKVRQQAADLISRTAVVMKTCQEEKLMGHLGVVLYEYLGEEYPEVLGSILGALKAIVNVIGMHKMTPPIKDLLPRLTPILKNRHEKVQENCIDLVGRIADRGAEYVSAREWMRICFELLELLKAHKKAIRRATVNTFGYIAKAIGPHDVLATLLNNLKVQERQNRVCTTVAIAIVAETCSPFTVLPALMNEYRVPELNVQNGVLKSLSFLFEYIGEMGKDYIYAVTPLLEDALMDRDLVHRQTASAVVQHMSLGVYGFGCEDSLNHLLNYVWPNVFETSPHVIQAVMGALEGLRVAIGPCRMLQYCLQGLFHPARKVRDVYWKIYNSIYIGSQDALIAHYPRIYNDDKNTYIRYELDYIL

B1: DNAJC8 (protein, UniProt O75937 1-253)
chain: MAASGESGTSGGGGSTEEAFMTFYSEVKQIEKRDSVLTSKNQIERLTRPGSSYFNLNPFEVLQIDPEVTDEEIKKRFRQLSILVHPDKNQDDADRAQKAFEAVDKAYKLLLDQEQKKRALDVIQAGKEYVEHTVKERKKQLKKEGKPTIVEEDDPELFKQAVYKQTMKLFAELEIKRKEREAKEMHERKRQREEEIEAQEKAKREREWQKNFEESRDGRVDSWRNFQANTKGKKEKKNRTFLRPPKVKMEQRE
B2: TAT-SF1 (protein, UniProt O43719 1-755)
chain: MSGTNLDGNDEFDEQLRMQELYGDGKDGDTQTDAGGEPDSLGQQPTDTPYEWDLDKKAWFPKITEDFIATYQANYGFSNDGASSSTANVEDVHARTAEEPPQEKAPEPTDARKKGEKRKAESGWFHVEEDRNTNVYVSGLPPDITVDEFIQLMSKFGIIMRDPQTEEFKVKLYKDNQGNLKGDGLCCYLKRESVELALKLLDEDEIRGYKLHVEVAKFQLKGEYDASKKKKKCKDYKKKLSMQQKQLDWRPERRAGPSRMRHERVVIIKNMFHPMDFEDDPLVLNEIREDLRVECSKFGQIRKLLLFDRHPDGVASVSFRDPEEADYCIQTLDGRWFGGRQITAQAWDGTTDYQVEETSREREERLRGWEAFLNAPEANRGLRRSDSVSASERAGPSRARHFSEHPSTSKMNAQETATGMAFEEPIDEKKFEKTEDGGEFEEGASENNAKESSPEKEAEEGCPEKESEEGCPKRGFEGSCSQKESEEGNPVRGSEEDSPKKESKKKTLKNDCEENGLAKESEDDLNKESEEEVGPTKESEEDDSEKESDEDCSEKQSEDGSEREFEENGLEKDLDEEGSEKELHENVLDKELEENDSENSEFEDDGSEKVLDEEGSEREFDEDSDEKEEEEDTYEKVFDDESDEKEDEEYADEKGLEAADKKAEEGDADEKLFEESDDKEDEDADGKEVEDADEKLFEDDDSNEKLFDEEEDSSEKLFDDSDERGTLGGFGSVEEGPLSTGSSFILSSDDDDDDI

Key:
Strep-PRP5 = biological target: T1, Strep-PRP5 (human, UniProt Q7L014 1-1031); assay: pull-down
T1 sequence: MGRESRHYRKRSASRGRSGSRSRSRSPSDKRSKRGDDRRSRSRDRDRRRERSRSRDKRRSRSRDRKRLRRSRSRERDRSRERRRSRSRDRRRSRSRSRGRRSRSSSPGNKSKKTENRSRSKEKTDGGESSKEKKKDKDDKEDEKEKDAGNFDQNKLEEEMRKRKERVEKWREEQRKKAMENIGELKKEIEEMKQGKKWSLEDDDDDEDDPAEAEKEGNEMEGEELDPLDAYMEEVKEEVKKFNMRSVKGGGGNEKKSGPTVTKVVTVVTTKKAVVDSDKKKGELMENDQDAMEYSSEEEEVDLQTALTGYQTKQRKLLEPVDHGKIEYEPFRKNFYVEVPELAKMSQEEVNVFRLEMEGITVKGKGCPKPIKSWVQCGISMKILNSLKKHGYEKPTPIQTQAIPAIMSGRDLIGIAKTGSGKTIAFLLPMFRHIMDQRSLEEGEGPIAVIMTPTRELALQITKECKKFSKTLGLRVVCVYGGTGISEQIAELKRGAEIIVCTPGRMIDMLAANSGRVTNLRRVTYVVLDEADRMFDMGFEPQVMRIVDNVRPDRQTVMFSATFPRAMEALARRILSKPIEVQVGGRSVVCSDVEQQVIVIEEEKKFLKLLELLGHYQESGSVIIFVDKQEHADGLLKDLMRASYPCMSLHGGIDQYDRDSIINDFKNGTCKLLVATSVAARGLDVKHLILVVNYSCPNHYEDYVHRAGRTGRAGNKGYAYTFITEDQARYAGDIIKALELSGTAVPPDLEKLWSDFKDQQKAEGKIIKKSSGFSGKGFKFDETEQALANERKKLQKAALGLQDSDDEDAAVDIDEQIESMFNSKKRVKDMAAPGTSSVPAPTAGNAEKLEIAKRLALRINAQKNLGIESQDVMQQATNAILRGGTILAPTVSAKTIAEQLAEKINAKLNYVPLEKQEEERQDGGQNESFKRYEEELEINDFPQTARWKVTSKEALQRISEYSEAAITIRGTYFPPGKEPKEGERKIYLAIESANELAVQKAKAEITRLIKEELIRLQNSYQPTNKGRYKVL

SF1 (human) = biological target: T2, SF1 (human) (UniProt Q15637); assay: cryo-EM structure
T2 sequence: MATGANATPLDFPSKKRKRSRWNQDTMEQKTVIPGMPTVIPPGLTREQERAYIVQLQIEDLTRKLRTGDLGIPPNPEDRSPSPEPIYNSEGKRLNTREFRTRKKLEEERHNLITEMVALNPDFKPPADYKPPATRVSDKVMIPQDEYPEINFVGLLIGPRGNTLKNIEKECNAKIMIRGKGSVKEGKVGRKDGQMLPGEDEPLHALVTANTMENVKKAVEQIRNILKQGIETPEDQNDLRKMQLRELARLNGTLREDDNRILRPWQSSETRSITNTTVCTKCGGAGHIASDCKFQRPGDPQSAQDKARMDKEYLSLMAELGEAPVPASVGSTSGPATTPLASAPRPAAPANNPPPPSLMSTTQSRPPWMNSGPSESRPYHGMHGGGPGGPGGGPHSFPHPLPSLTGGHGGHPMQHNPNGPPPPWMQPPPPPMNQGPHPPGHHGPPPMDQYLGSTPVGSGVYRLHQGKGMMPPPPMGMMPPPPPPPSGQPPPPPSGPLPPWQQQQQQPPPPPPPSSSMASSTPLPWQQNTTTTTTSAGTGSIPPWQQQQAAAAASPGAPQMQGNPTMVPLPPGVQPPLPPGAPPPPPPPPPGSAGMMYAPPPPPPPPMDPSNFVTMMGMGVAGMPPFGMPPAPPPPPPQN

SF3A2 (human) = biological target: T3, SF3A2 (human) (UniProt Q15428); assay: cryo-EM structure
T3 sequence: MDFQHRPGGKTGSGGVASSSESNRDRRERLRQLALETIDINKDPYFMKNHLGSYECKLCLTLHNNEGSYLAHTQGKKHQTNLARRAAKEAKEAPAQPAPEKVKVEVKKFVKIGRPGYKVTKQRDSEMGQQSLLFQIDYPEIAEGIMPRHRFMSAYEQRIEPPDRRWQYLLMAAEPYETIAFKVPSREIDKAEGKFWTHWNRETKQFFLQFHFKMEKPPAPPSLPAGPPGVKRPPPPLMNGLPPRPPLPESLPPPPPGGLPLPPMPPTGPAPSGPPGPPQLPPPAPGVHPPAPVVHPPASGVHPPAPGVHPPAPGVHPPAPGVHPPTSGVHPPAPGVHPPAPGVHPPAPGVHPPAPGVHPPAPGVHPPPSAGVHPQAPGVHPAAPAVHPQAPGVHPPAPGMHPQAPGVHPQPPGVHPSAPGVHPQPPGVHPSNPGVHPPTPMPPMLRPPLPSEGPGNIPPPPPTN

Flag-tagged PRP5 (human) = biological target: T4, Flag-tagged PRP5 (human) (UniProt Q7L014); assay: cryo-EM structure
T4 sequence: T1 sequence

Molecule	binding (Strep-PRP5)	also measured
Flag-tagged SF3B1 H662D (from UniProt O75533 1-1304)	binds	–
Flag-tagged SF3B1 K666E (from UniProt O75533 1-1304)	binds	–
Flag-tagged SF3B1 D781G (from UniProt O75533 1-1304)	binds	–
Flag-tagged SF3B1 R625D (from UniProt O75533 1-1304)	binds	–
Flag-tagged SF3B1 E622R (from UniProt O75533 1-1304)	binds	–
Flag-tagged SF3B1 K741E (from UniProt O75533 1-1304)	binds	–
Flag-tagged SF3B1 G742D (from UniProt O75533 1-1304)	binds	–
B1	–	binding (SF1 (human)): binds; binding (SF3A2 (human)): binds
B2	–	binding (Flag-tagged PRP5 (human)): binds
